# Data taken from the supplement of paper PMC6411743.
# The chains behind the UniProt entries cited, without tags or fusion partners. Where a name states a change or a piece, a line headed by the entry shows the natural chain unless it says otherwise.
# UniProt P0CG13, whole entry: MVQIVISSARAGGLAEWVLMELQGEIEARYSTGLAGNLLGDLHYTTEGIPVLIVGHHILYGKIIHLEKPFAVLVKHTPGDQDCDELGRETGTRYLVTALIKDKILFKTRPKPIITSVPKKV
# UniProt P11166: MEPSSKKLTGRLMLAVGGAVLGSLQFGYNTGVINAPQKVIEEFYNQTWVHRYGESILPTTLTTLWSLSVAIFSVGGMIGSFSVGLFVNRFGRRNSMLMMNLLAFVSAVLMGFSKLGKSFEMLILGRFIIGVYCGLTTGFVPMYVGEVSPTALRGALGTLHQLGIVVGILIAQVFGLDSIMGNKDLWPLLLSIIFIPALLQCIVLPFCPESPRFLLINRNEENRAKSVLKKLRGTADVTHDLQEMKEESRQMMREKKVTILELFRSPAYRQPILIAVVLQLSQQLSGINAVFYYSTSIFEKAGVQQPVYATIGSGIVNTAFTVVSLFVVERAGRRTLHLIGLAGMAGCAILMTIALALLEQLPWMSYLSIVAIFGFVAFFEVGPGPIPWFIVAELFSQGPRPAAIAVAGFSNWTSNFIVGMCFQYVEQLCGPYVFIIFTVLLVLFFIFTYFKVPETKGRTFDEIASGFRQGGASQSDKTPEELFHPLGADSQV
# UniProt P07237: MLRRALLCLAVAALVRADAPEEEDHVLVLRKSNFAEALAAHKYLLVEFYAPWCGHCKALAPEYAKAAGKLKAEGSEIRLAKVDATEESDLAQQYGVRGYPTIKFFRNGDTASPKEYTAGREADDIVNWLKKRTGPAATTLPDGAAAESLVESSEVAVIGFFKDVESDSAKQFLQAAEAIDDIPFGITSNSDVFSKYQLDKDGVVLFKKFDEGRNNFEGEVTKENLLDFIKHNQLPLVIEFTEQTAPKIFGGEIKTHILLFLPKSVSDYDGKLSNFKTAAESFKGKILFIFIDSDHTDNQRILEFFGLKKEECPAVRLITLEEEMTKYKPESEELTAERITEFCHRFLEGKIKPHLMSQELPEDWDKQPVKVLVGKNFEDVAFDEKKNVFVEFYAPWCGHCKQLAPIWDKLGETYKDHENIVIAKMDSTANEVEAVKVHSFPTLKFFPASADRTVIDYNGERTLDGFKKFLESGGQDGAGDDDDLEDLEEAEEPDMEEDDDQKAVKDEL
# UniProt P08397: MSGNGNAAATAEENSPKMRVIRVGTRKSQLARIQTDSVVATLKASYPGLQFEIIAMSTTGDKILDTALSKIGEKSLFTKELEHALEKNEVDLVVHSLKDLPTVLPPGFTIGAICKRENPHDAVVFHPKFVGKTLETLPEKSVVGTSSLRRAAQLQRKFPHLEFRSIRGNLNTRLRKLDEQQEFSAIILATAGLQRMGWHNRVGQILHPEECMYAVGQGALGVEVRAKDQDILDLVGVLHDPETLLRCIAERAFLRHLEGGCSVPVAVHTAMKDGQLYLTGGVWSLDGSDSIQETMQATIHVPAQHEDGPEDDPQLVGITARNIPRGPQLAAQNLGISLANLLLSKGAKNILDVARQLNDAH
# UniProt P07741: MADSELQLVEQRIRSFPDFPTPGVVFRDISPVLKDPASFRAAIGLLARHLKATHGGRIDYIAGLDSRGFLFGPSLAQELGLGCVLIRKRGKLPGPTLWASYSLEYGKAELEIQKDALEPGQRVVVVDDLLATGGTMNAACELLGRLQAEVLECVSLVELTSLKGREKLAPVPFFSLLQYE
# UniProt O96013: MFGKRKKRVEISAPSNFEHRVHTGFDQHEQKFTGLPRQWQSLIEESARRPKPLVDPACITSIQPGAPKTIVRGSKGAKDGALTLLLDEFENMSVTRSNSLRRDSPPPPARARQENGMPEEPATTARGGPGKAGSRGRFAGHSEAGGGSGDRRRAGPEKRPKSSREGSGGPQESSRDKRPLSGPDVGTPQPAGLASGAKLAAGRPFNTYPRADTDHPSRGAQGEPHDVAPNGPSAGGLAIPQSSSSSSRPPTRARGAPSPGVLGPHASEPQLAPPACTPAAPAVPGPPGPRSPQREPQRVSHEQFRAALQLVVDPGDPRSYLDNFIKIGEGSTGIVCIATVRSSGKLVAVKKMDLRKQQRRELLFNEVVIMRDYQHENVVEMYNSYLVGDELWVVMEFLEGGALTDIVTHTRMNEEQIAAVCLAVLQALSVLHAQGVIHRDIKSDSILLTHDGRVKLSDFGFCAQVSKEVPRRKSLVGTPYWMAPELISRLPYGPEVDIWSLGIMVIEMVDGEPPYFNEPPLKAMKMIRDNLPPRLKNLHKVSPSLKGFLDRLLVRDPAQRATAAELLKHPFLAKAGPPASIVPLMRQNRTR
# UniProt P14618, whole entry, looked up: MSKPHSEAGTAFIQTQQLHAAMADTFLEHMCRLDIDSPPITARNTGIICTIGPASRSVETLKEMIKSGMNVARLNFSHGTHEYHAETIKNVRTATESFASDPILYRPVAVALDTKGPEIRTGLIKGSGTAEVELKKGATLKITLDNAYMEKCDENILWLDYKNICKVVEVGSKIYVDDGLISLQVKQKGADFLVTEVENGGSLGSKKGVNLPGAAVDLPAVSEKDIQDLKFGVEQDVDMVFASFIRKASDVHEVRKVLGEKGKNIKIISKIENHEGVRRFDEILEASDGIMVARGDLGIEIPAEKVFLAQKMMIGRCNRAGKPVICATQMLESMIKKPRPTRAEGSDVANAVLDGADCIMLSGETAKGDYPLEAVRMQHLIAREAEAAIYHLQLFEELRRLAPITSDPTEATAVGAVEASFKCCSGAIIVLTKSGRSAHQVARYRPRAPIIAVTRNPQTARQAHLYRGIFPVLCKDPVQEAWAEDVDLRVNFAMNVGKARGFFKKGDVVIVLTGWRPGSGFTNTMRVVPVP
# UniProt O95835: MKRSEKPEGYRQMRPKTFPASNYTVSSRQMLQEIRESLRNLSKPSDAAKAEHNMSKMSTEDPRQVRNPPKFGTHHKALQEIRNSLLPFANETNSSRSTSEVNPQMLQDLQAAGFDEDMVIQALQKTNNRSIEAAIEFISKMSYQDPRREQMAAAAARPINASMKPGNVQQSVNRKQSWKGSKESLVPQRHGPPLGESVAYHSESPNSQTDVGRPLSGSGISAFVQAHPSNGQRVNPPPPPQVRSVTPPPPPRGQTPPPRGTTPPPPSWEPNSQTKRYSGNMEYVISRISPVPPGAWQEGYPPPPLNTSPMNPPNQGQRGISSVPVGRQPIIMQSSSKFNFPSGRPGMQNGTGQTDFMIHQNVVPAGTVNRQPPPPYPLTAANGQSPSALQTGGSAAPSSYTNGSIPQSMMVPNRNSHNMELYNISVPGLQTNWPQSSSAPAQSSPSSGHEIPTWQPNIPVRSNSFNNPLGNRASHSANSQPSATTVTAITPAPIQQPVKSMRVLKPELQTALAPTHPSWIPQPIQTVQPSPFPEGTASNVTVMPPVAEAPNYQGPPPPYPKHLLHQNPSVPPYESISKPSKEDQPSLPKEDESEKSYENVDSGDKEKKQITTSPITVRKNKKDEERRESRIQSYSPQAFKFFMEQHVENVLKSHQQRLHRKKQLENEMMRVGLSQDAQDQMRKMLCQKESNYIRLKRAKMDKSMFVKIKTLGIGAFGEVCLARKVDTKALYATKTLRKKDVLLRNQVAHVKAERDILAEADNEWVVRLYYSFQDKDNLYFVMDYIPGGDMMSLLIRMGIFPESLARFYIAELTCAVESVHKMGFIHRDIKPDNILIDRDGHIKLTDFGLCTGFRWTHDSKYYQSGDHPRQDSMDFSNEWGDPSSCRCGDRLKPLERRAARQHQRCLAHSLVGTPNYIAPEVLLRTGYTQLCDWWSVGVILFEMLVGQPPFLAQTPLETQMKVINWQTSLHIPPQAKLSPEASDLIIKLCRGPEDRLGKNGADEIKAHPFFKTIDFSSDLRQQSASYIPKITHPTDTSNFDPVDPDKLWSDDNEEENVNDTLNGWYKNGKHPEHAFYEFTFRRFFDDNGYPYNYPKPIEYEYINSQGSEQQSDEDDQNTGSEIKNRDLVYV
# UniProt P08574: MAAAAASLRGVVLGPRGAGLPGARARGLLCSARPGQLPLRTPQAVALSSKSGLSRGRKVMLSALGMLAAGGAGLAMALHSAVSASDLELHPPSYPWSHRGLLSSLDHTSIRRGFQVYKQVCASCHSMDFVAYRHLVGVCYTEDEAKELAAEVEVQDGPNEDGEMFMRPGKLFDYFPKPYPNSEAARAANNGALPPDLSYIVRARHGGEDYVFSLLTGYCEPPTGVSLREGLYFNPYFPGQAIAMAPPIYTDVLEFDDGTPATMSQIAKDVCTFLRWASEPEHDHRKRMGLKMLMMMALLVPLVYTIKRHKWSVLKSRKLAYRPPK
# UniProt P04921: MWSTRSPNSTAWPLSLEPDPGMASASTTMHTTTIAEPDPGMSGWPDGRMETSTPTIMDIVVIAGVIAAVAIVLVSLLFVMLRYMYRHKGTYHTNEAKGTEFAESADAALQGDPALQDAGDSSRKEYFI
# UniProt P13667: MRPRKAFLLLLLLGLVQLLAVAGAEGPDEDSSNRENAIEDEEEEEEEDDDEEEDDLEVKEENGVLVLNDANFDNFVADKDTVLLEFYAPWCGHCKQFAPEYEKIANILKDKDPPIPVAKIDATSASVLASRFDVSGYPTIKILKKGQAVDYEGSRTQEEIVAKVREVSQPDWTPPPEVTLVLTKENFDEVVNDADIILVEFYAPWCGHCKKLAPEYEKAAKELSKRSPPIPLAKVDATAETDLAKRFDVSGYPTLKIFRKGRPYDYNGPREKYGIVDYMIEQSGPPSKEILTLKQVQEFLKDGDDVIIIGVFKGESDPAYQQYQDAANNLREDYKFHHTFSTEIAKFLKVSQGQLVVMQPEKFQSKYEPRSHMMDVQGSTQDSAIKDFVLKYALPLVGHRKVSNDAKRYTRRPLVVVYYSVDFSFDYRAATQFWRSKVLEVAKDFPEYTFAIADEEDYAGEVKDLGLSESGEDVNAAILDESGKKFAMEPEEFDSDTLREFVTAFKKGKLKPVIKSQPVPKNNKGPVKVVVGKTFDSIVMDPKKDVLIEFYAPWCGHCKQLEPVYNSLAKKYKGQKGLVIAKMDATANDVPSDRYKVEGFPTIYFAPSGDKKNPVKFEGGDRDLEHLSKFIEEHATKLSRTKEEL
# UniProt P00558: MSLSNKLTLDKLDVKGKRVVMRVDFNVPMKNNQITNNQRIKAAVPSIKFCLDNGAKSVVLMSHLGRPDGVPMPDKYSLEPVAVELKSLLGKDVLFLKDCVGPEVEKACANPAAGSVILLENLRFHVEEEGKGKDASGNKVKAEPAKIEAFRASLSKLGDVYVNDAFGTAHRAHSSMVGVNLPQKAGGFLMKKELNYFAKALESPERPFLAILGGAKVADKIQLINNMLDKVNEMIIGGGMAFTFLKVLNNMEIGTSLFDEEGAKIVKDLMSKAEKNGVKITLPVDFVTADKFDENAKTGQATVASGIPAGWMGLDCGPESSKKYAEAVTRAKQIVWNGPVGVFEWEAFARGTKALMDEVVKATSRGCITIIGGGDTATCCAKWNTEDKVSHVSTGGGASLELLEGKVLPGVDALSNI
# UniProt P11172: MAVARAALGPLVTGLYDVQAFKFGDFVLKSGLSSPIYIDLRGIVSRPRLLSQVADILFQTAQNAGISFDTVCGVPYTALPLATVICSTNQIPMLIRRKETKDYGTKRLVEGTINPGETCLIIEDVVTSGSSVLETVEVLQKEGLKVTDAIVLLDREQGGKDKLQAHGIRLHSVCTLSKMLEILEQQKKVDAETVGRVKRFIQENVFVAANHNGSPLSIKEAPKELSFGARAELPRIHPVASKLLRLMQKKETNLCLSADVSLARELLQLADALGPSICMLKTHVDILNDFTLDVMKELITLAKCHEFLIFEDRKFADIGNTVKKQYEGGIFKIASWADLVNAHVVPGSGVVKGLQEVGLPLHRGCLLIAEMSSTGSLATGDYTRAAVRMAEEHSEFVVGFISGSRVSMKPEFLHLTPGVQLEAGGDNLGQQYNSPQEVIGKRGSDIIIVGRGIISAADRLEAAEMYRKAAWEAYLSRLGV
# UniProt P13797: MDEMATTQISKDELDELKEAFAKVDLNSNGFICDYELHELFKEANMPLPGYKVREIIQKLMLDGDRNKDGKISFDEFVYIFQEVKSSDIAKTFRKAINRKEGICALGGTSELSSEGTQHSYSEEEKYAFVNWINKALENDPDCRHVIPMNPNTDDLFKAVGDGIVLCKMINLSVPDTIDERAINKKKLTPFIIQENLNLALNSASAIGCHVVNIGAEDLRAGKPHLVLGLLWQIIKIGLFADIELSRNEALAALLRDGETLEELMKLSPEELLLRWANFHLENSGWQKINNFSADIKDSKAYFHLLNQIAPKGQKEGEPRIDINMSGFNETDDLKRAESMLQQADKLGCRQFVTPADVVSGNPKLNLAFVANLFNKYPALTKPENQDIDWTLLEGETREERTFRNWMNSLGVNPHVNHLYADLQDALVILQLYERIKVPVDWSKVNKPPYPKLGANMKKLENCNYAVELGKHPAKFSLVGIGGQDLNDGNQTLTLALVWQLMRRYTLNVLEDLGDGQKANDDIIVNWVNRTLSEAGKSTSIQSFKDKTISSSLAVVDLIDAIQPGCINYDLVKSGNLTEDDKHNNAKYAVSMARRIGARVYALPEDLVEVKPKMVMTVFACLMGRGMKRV
# ± gives the standard deviation of the averaged measurements. Only a part is listed here, and it is no random draw.
# Compound: Nc1ncnc2c1ncn2[C@@H]1O[C@H](COP(=O)(O)OP(=O)(O)OP(=O)(O)O)[C@@H](O)[C@H]1O [adenosine triphosphate]
# Experiment: NP40-soluble protein abundance relative to vehicle (solubility fold change) (ratio); higher = more soluble protein in presence of ATP
# Procedure, shortened: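 Jurkat crude lysate prepared with a Dounce homogeniser was treated at eight concentrations spanning 0.1 to 10 mM, 10 min at room temperature then 3 min at 37 °C. Solubilisation with 0.8% NP40 and benzonase and ultracentrifugation preceded TMT labelling of the supernatant for LC-MS/MS. Fold change against the detergent-processed vehicle was determined per replicate from vsn-normalised intensities, across three independent experiments.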
target,measurement,setting,value
P0CG12 and related entries (UniProt P0CG13),NP40-soluble protein abundance,concentration: 1mM,0.958 ± 0.044
same,NP40-soluble protein abundance,concentration: 2mM,0.964 ± 0.034
same,NP40-soluble protein abundance,concentration: 4mM,0.966 ± 0.053
same,NP40-soluble protein abundance,concentration: 6mM,0.927 ± 0.031
same,NP40-soluble protein abundance,concentration: 8mM,0.927 ± 0.028
same,NP40-soluble protein abundance,concentration: 10mM,0.938 ± 0.059
SLC2A1 (UniProt P11166),NP40-soluble protein abundance,concentration: 1mM,0.939 ± 0.088
same,NP40-soluble protein abundance,concentration: 2mM,0.954 ± 0.043
same,NP40-soluble protein abundance,concentration: 4mM,0.956 ± 0.064
same,NP40-soluble protein abundance,concentration: 6mM,0.962 ± 0.036
same,NP40-soluble protein abundance,concentration: 8mM,0.929 ± 0.035
same,NP40-soluble protein abundance,concentration: 10mM,0.95 ± 0.022
P4HB (UniProt P07237),NP40-soluble protein abundance,concentration: 1mM,0.906 ± 0.07
same,NP40-soluble protein abundance,concentration: 2mM,0.951 ± 0.012
same,NP40-soluble protein abundance,concentration: 4mM,0.843 ± 0.087
same,NP40-soluble protein abundance,concentration: 6mM,0.9899 ± 0.0063
same,NP40-soluble protein abundance,concentration: 8mM,0.902 ± 0.026
same,NP40-soluble protein abundance,concentration: 10mM,0.906 ± 0.045
HMBS (UniProt P08397),NP40-soluble protein abundance,concentration: 1mM,0.961 ± 0.033
same,NP40-soluble protein abundance,concentration: 2mM,0.964 ± 0.039
same,NP40-soluble protein abundance,concentration: 4mM,0.94 ± 0.049
same,NP40-soluble protein abundance,concentration: 6mM,0.975 ± 0.039
same,NP40-soluble protein abundance,concentration: 8mM,0.929 ± 0.069
same,NP40-soluble protein abundance,concentration: 10mM,0.951 ± 0.059
APRT (UniProt P07741),NP40-soluble protein abundance,concentration: 1mM,0.826 ± 0.056
same,NP40-soluble protein abundance,concentration: 2mM,0.87 ± 0.065
same,NP40-soluble protein abundance,concentration: 4mM,0.852 ± 0.018
same,NP40-soluble protein abundance,concentration: 6mM,0.735 ± 0.12
same,NP40-soluble protein abundance,concentration: 8mM,0.804 ± 0.021
same,NP40-soluble protein abundance,concentration: 10mM,0.85 ± 0.014
PAK4 (UniProt O96013),NP40-soluble protein abundance,concentration: 1mM,1.02 ± 0.019
same,NP40-soluble protein abundance,concentration: 2mM,0.999 ± 0.032
same,NP40-soluble protein abundance,concentration: 4mM,1.021 ± 0.0019
same,NP40-soluble protein abundance,concentration: 6mM,0.974 ± 0.018
same,NP40-soluble protein abundance,concentration: 8mM,1 ± 0.028
same,NP40-soluble protein abundance,concentration: 10mM,0.985 ± 0.011
COX6A1 (UniProt P12074),NP40-soluble protein abundance,concentration: 1mM,0.973 ± 0.16
same,NP40-soluble protein abundance,concentration: 2mM,0.956 ± 0.16
same,NP40-soluble protein abundance,concentration: 4mM,0.964 ± 0.12
same,NP40-soluble protein abundance,concentration: 6mM,0.976 ± 0.13
same,NP40-soluble protein abundance,concentration: 8mM,0.998 ± 0.06
same,NP40-soluble protein abundance,concentration: 10mM,0.879 ± 0.12
UniProt P14618 and related entries,NP40-soluble protein abundance,concentration: 1mM,1 ± 0.04
same,NP40-soluble protein abundance,concentration: 2mM,0.969 ± 0.034
same,NP40-soluble protein abundance,concentration: 4mM,0.931 ± 0.055
same,NP40-soluble protein abundance,concentration: 6mM,0.926 ± 0.068
same,NP40-soluble protein abundance,concentration: 8mM,0.956 ± 0.039
same,NP40-soluble protein abundance,concentration: 10mM,0.939 ± 0.048
LATS1 (UniProt O95835),NP40-soluble protein abundance,concentration: 1mM,1.14 ± 0.036
same,NP40-soluble protein abundance,concentration: 2mM,1.16 ± 0.07
same,NP40-soluble protein abundance,concentration: 4mM,1.08 ± 0.073
same,NP40-soluble protein abundance,concentration: 6mM,1.15 ± 0.1
same,NP40-soluble protein abundance,concentration: 8mM,1.07 ± 0.15
same,NP40-soluble protein abundance,concentration: 10mM,1.16 ± 0.086
CYC1 (UniProt P08574),NP40-soluble protein abundance,concentration: 1mM,0.988 ± 0.068
same,NP40-soluble protein abundance,concentration: 2mM,0.982 ± 0.048
same,NP40-soluble protein abundance,concentration: 4mM,0.941 ± 0.06
same,NP40-soluble protein abundance,concentration: 6mM,0.939 ± 0.065
same,NP40-soluble protein abundance,concentration: 8mM,0.967 ± 0.067
same,NP40-soluble protein abundance,concentration: 10mM,0.933 ± 0.024
UniProt P04921 and related entries,NP40-soluble protein abundance,concentration: 1mM,0.824 ± 0.016
same,NP40-soluble protein abundance,concentration: 2mM,0.76 ± 0.06
same,NP40-soluble protein abundance,concentration: 4mM,0.8462 ± 0.0068
same,NP40-soluble protein abundance,concentration: 6mM,0.853 ± 0.17
same,NP40-soluble protein abundance,concentration: 8mM,0.752 ± 0.034
same,NP40-soluble protein abundance,concentration: 10mM,0.707 ± 0.11
PDIA4 (UniProt P13667),NP40-soluble protein abundance,concentration: 1mM,0.981 ± 0.014
same,NP40-soluble protein abundance,concentration: 2mM,0.9605 ± 0.0066
same,NP40-soluble protein abundance,concentration: 4mM,0.9233 ± 0.0076
same,NP40-soluble protein abundance,concentration: 6mM,0.982 ± 0.025
same,NP40-soluble protein abundance,concentration: 8mM,0.935 ± 0.029
same,NP40-soluble protein abundance,concentration: 10mM,0.93 ± 0.034
UniProt P01733,NP40-soluble protein abundance,concentration: 1mM,1.06 ± 0.038
same,NP40-soluble protein abundance,concentration: 2mM,0.966 ± 0.083
same,NP40-soluble protein abundance,concentration: 4mM,1.1 ± 0.045
same,NP40-soluble protein abundance,concentration: 6mM,0.964 ± 0.049
same,NP40-soluble protein abundance,concentration: 8mM,1 ± 0.056
same,NP40-soluble protein abundance,concentration: 10mM,0.936 ± 0.03
PGK1 (UniProt P00558),NP40-soluble protein abundance,concentration: 1mM,0.97 ± 0.04
same,NP40-soluble protein abundance,concentration: 2mM,0.933 ± 0.035
same,NP40-soluble protein abundance,concentration: 4mM,0.936 ± 0.029
same,NP40-soluble protein abundance,concentration: 6mM,0.941 ± 0.035
same,NP40-soluble protein abundance,concentration: 8mM,0.924 ± 0.011
same,NP40-soluble protein abundance,concentration: 10mM,0.928 ± 0.023
UMPS (UniProt P11172),NP40-soluble protein abundance,concentration: 1mM,1.03 ± 0.08
same,NP40-soluble protein abundance,concentration: 2mM,0.999 ± 0.081
same,NP40-soluble protein abundance,concentration: 4mM,0.971 ± 0.069
same,NP40-soluble protein abundance,concentration: 6mM,0.958 ± 0.11
same,NP40-soluble protein abundance,concentration: 8mM,1 ± 0.068
same,NP40-soluble protein abundance,concentration: 10mM,0.972 ± 0.065
RPLP0 (UniProt P05388),NP40-soluble protein abundance,concentration: 1mM,0.929 ± 0.017
same,NP40-soluble protein abundance,concentration: 2mM,0.928 ± 0.063
same,NP40-soluble protein abundance,concentration: 4mM,0.881 ± 0.086
same,NP40-soluble protein abundance,concentration: 6mM,0.822 ± 0.064
same,NP40-soluble protein abundance,concentration: 8mM,0.772 ± 0.038
same,NP40-soluble protein abundance,concentration: 10mM,0.86 ± 0.071
PLS3 (UniProt P13797),NP40-soluble protein abundance,concentration: 1mM,0.937 ± 0.048
same,NP40-soluble protein abundance,concentration: 2mM,0.914 ± 0.035
same,NP40-soluble protein abundance,concentration: 4mM,0.986 ± 0.087
same,NP40-soluble protein abundance,concentration: 6mM,0.879 ± 0.061
same,NP40-soluble protein abundance,concentration: 8mM,0.918 ± 0.13
same,NP40-soluble protein abundance,concentration: 10mM,0.929 ± 0.029

# 4 entries from above, tab-delimited.
target	measurement	setting	value
UniProt P01733	NP40-soluble protein abundance	concentration: 1mM	1.06 ± 0.038
same	NP40-soluble protein abundance	concentration: 2mM	0.966 ± 0.083
same	NP40-soluble protein abundance	concentration: 4mM	1.1 ± 0.045
same	NP40-soluble protein abundance	concentration: 6mM	0.964 ± 0.049

# Pulled one by one from above (2):
target,measurement,setting,value
PLS3 (UniProt P13797),NP40-soluble protein abundance,concentration: 2mM,0.914 ± 0.035
LATS1 (UniProt O95835),NP40-soluble protein abundance,concentration: 2mM,1.16 ± 0.07
